No constants are given. Whether binding was seen depends on the method and setting. Binding seen in cells or lysates may run through a third protein. A yes stands for co-enrichment or nearness to the bait. Other partners may have been found.
B1: Vsb1 (protein, UniProt P53273 1-1036)
chain: MGRTIRRRRSNSSLSEAISVSLGINQDSSVNKMHRASVSAMSPPLCRSYMSGFFTGGNSPMINNLSDSKLPISNKQHPKVIHGSENLHRQTAQLSNEFCSSSVEENSPTIKDYMDIIGNGDRKDDQSMRTIEENIDEEYSDEYSRLLLSPASSNVDDDRNRGLQNSSLPELEDGYAGGYQSLRPSHNLRFRPRNLWHMCTSFPSKFAHYLPAAVLGLLLNILDALSYGMIIFPITEPVFSHLGPTGISMFYISTIISQAVYSGGWSSFPSGIGSEMIEITPFYHTMALAIKEALAGNDDEIITTTIFCYVISSMLTGVVFYALGKLRLGKIVGFFPRHILIGCIGGVGYFLIITGIEVTTRVAKFEYSWPFFSGLFTDYDTLAKWLLPVLLTVVLIGTQRYFKNSLVLPSFYILTLVLFHFIVAIIPTLSLDALRQAGWIFPIANSDSKWYDHYRLFNVHKVHWSLVLQQIPTMMALTFFGILHVPINVPALAMSLQMDKYDVDRELIAHGYSNFFSGLLGSVQNYLVYTNSVLFIRAGADSPFAGFLLIALTICIMIIGPVIISFIPICIVGSLIFLLGYELLVEALVDTWNKLNRFEYLTVVIIVFTMGIFDFVLGIIVGILIACFSFLVDSTKLQTINGEYNGNVARSTVYRDYVQTKFLDGIGEQIYVLKLQNLLFFGTIISIEEKIERLLQISNKDATKRRIKYLILDFKNINADNIDYSAAEGFNRIKRFTETKRIKLIISSIKERDRIYNAFNNVGLLNDVELFADLNSALEWCENEFLFQYKQLRKKAKERLEEGKQNNVVSAVIAATKNKKIDTIGNGLNRGSNGDTARNLMSLPTNTPRNYQILSVAQNVFVNDEQAVKNFKKEYKDDEPVLPILLFALKQYRPDIISEVQKVREKEIKFWAQLCPYFTRRRLASQSHLLHADNIFFLVETGMLKATYELPQGTLYEIFSNGTCFGKIIAPGNAMPREQKLTIETETDSVLWVIDSSSLNKLKEDNLALYVEVALMVMCIKDTRFKELLGYTLVSA
B2: Vtc5 (protein, UniProt P38966 1-869)
chain: MKFEDRILNKSIPEWKFYNINYEKLKVAIKKVTAYDYDNPNDSGMEKLLNQCSVAFDQEFQNVNLFVSLKIKEISTRILSVESSIIDFSKGLNKTSRNRFNLRKLKIINAHVDDCNFELQLLSRFLIIQRIALRKLFKKLLNEFPQDSENPLTASEYVTSIRNSESLRNGHEGISFMKLDLDPYLLEVSLIVDVLHDLENKLEDATEPAVEQRSLNRSDESAHTSSSPEANNSSLPASPRSIPLLSNKKTSKMIDSSLEFDTALIDKAENLGRFLLSSEDIEGLKFMLLNIGFRIIDDSIISTSKEILDTTDNINSAGNKSIRSAKSFNDLQHTLSLSKQKNILPSAVQSNEKYVSISILDTVGNEGSPLLLTDDNINQHPNMIVSSTAEDTCIVMCHVGGLRNHVVTNDLLLRDVKNILSAMRSGNDTKNISALINSLDPSPISKIALEWIQSHRLKTIEPKLDFKRTRFISADNGDIYLIALDESITIGNVSTLPFPILEIKKLSRSSGLSQTAINEDNKFKQLMKSVVTNEFQCSLIPPDLTTWKICLELVHSNELQNDLFQLLLRDQYKLNSDDSLSPDEFFQLGKDRLEEEFDLTGPINNSQGSVDSGRRVRIHKKSKQSDNETKKKPIRYWNEFDEQEEDNLDNAFYIDTNGSRSTTDNEESLLLRNSPPDYGFILFSRNFINRTYDFCEKLRNLIRHDKKTSPDLFQNSKHPHCSSTNYGSVASFGSQSTSASYDDVQRYLQYQQQDIEDSQSIYEYRHDEVVTFLYLSALLTSCIMASVCLGIVLSLFRGQSNNEIDLEIQNILIAIIIISLLVSLILICACLLLLFSRFTLAPIWHYVGCFTMFFSVTGTVCYGMIEIFF
B3: Seh1 (protein, UniProt P53011 1-349)
chain: MQPFDSGHDDLVHDVVYDFYGRHVATCSSDQHIKVFKLDKDTSNWELSDSWRAHDSSIVAIDWASPEYGRIIASASYDKTVKLWEEDPDQEECSGRRWNKLCTLNDSKGSLYSVKFAPAHLGLKLACLGNDGILRLYDALEPSDLRSWTLTSEMKVLSIPPANHLQSDFCLSWCPSRFSPEKLAVSALEQAIIYQRGKDGKLHVAAKLPGHKSLIRSISWAPSIGRWYQLIATGCKDGRIRIFKITEKLSPLASEESLTNSNMFDNSADVDMDAQGRSDSNTEEKAELQSNLQVELLSEHDDHNGEVWSVSWNLTGTILSSAGDDGKVRLWKATYSNEFKCMSVITAQQ
B4: Sea2/Rtc1 (protein, UniProt Q08281 1-1341)
chain: MSLSPHVENASIPKGSTPIPKNRNVSSIGKGEFLGSSSSNNSSFRMNHYSNSGQPSVLDSIRRPNLTPTFSYSNGVYMPESHRTSSFNDSYLPYDKNPYAKTTGSMSNKSNMKIKTKKNAINTNTRKSSGLIYTTKVDKELSSIDKVNDPNINGLVCAGKTHLGLYKFSPSDRSIKCVHDFITPNSNTSTRGTTSLLPKLSKRTRQNKFSTIADVKTGFNNYKNCIAVCNNSTAISIYDLNKSSSIDNPLITSLCEHTRSINSFDFNMVESNLIISGGQDSCVKIWDLRSNKSKSSNRSDISINTASDSIRDVKWMPGYNFASKNDQGSSTYGNLKSGYKFASIHDSGYLLKFDLRQPAQYEKKLNAHTGPGLCLNWHPNQEYIATGGRDGKCCLWFVGDNANAAENTVLNYGNSPSLHAPNTSLNNSGSLAFPKLTINTGYPVTKLKFKPAYSSNIYNSLLGISSMGDEAEVRIYSLARKYIPKHVLLSETPSLGLVWWDENLIFNIDKGTRINGWDINKEPTVLENLSKNTTTWRDLDGNGLLSVDQEIGSYEVVEPELQPTSSTTCKKHPGTIKNPKNGNPENQGIIGGIKKGFSHTGLTSFTPERPPTLKAGPTFSTKSLTLASGASSFNSSSASLTSLTPQTENREEIAIEPPCIITLDIPQIFNNIRLTKIAHSRKKNVISESSSMKNSPVEKFKYLARQLKFSYIREHNVSDSADTAYKNDIENIDVVKNATETHGDNTTTTNNNDDGDDDDDDDDDDKIIESHLLKKYNFPENNTWATLMNEKVNNKKSKRNSSSSREFDEKDVRSSISSISASRQSHDRARKIDKNVEAELQEKIQTLVDLISIATHNASVYLSIDDLTNFKIWILIRDSLLWDLKWMTSSQISSDNASNMDANESSDFEAGENLKTGKEFPEEDGAGTSGAESLVEERPQAFRANSDEPSDAEKKPVSKLKEQLKNTEIIPYAQPNEDSDEVLTKLKELQNQRLESRTKMGETVSDDVIIEEDEHEHQEEEQPHDSPTKSAQFHASPIAKSIPILQKREHRKSFIDTFMLHSPNGYNGDTDIGNEDDNISPRFTYNSVSPRSKVSSLQSYATTTSQLETFKKLSSHTAPIIGSPRHAPSRPDSIGREQLSSSLTKKLAKCKKIIADPPWDTKKLIKQLYNQATETGNVVLTVNILFLFQTIYQITEIDIAKDAIAHFLLLLHRYELFGIAADVLKYCPFEDIMGSEGDQSSIRLFCERCGELITNESSKEKLRAEAQQTGNKKIMDKFGYWYCDSCKKKNTSCVLCERPLKKLTMVILPCGHEGHFQCIQEWFLDENEQECPGGCPGVAFI
B5: Vnx1 (protein, UniProt P42839 1-908)
chain: MAKNNHISASGNSTSGDHRLKEEVLTPTTSASTPHRIFSVDDDPKEIQNDIRYLEGLHEGLKFALHANKSKRSVSSQSPIVHSSNNTLHHHEHQQHLPPTLESLSSKSHSVPDLNTATPSSPKRMHSSIRELPHDDNDDEDANDDSRFIIHDSHGHDLLIDEINCQSPSHLENNDQASNASSTESFTLRERQDAINETHPFGIRIWKPALYKKHRSVQRTAAQDIHETQLKTITWEVTCSNVLWFILFGFPIAILFYSAAIVVFLLGGGGLVTNSAKEYSKCLYKLANYFLWPFGKMVYLLQDEQYLQEDKDEGISMQQFYNWVTSYSNRLVFHQSQAKFQQREDHPAPATESSSLMPPANTTATPLNSNHPSYNSIRHEIPHAAAQRRYFGRGKWSWGRVLFYTIFHLVLQPILAVLSLCLWLLVFTIPMSNVLWQIMYHCRRHPLALGFKYVENSSQSHENEITQQQLNKNILLCTFRAAGWHYYKYTVDGTNVIVVNLISIVFFTIFDFYVLKNFLHWKTWFTYESSIFILCLTSTIPLAFYIGQAVASISAQTSMGVGAVINAFFSTIVEIFLYCVALQQKKGLLVEGSMIGSILGAVLLLPGLSMCGGALNRKTQRYNPASAGVSSALLIFSMIVMFVPTVLYEIYGGYSVNCADGANDRDCTFSHPPLKFNRLFTHVIQPMSISCAIVLFCAYIIGLWFTLRTHAKMIWQLPIADPTSTAPEQQEQNSHDAPNWSRSKSTCILLMSTLLYAIIAEILVSCVDAVLEDIPSLNPKFLGLTIFALIPNTTEFLNAISFAIHGNVALSMEIGSAYALQVCLLQIPSLVIYSIFYTWNVKKSMINIRTQMFPLVFPRWDIFGAMTSVFMFTYLYAEGKSNYFKGSMLILLYIIIVVGFYFQGALSE
B6: Syg1 (protein, UniProt P40528 1-902)
chain: MKFADHLTESAIPEWRDKYIDYKVGKKKLRRYKEKLDAEEEQSSSYRSWMPSVSVYQTAFQQREPGKSRSDGDYRSGPAFKKDYSALQREFVADFIEDWLISFQLSKCNEFYLWLLKECDKKFEVLQSQLHYYSLQKNYERDNLNRSSSNVDMSTSLYAAGLAGRSDSRVNSIDSDSRSVMYGSMPCTKEAKKPRLSLLAYCQKVLKDNRLLPSWPKRGFSLLQDLRQDASSRGRETFAFGASFLETMTTTQARNLLSNAIIEYYLYLQLVKSFRDINVTGFRKMVKKFDKTCHTRELTTFMSYARTHYTLFKHADANVQLVAQKMQQITSSQPTPTSELSSAQRDKEPITWLETQITEWFTTALTNSPKDRKHNTHKLKKLTIQYSISEQMVHRNNRSIVQMLVVGLGIGVSMTLITYTLYLGISSEETSFTHKILFPLWGGWYMVLLIAFLFLVNCFIWHRTGINYRFIMLGEIQSKNGTQFFNNDFATSKIPLKLYFLTFFIVPCAVCSMLSFALEKLTPLGFLYIGIVSFLFLCPSGLIPYWDKVVHTRKWLVVTLIRLMMSGFFPVEFGDFFLGDIICSLTYSIADIAMFFCVYSHTPNNLCGSSHSRAMGVLSCLPSYWRFMQCLRRFADSGDWFPHLLNAAKYTLGIAYNATLCAYRLSDRSEQRRTPFIVCATLNSILTSAWDLVMDWSFAHNTTSYNWLLRDDLYLAGKKNWENGSYSFSRKLVYYFAMIWDILIRFEWIVYAIAPQTIQQSAVTSFILALLEVLRRFVWIIFRVENEHVANVHLFRVTGDAPLPYPIAQVGDDSMDSSDLGSKAFSSLNDIPITPSHDNNPHSFAEPMPAYRGTFRRRSSVFENISRSIPWAHATDFQRPTVNTVDDRSPETDSESEVESIM
B7: Rtg2 (protein, UniProt P32608 1-588)
chain: MSTLSDSDTETEVVSRNLCGIVDIGSNGIRFSISSKAAHHARIMPCVFKDRVGLSLYEVQYNTHTNAKCPIPRDIIKEVCSAMKRFKLICDDFGVPETSVRVIATEATRDAINADEFVNAVYGSTGWKVEILGQEDETRVGIYGVVSSFNTVRGLYLDVAGGSTQLSWVISSHGEVKQSSKPVSLPYGAGTLLRRMRTDDNRALFYEIKEAYKDAIEKIGIPQEMIDDAKKEGGFDLWTRGGGLRGMGHLLLYQSEGYPIQTIINGYACTYEEFSSMSDYLFLKQKIPGSSKEHKIFKVSDRRALQLPAVGLFMSAVFEAIPQIKAVHFSEGGVREGSLYSLLPKEIRAQDPLLIASRPYAPLLTEKYLYLLRTSIPQEDIPEIVNERIAPALCNLAFVHASYPKELQPTAALHVATRGIIAGCHGLSHRARALIGIALCSRWGGNIPESEEKYSQELEQVVLREGDKAEALRIVWWTKYIGTIMYVICGVHPGGNIRDNVFDFHVSKRSEVETSLKELIIDDANTTKVKEESTRKNRGYEVVVRISKDDLKTSASVRSRIITLQKKVRKLSRGSVERVKIGVQFYEE

Sequences of proteins named here, by UniProt entry; tags and fusion partners are left off. A change or cut given only in a name is not applied to a line headed by its entry.
UniProt P38873: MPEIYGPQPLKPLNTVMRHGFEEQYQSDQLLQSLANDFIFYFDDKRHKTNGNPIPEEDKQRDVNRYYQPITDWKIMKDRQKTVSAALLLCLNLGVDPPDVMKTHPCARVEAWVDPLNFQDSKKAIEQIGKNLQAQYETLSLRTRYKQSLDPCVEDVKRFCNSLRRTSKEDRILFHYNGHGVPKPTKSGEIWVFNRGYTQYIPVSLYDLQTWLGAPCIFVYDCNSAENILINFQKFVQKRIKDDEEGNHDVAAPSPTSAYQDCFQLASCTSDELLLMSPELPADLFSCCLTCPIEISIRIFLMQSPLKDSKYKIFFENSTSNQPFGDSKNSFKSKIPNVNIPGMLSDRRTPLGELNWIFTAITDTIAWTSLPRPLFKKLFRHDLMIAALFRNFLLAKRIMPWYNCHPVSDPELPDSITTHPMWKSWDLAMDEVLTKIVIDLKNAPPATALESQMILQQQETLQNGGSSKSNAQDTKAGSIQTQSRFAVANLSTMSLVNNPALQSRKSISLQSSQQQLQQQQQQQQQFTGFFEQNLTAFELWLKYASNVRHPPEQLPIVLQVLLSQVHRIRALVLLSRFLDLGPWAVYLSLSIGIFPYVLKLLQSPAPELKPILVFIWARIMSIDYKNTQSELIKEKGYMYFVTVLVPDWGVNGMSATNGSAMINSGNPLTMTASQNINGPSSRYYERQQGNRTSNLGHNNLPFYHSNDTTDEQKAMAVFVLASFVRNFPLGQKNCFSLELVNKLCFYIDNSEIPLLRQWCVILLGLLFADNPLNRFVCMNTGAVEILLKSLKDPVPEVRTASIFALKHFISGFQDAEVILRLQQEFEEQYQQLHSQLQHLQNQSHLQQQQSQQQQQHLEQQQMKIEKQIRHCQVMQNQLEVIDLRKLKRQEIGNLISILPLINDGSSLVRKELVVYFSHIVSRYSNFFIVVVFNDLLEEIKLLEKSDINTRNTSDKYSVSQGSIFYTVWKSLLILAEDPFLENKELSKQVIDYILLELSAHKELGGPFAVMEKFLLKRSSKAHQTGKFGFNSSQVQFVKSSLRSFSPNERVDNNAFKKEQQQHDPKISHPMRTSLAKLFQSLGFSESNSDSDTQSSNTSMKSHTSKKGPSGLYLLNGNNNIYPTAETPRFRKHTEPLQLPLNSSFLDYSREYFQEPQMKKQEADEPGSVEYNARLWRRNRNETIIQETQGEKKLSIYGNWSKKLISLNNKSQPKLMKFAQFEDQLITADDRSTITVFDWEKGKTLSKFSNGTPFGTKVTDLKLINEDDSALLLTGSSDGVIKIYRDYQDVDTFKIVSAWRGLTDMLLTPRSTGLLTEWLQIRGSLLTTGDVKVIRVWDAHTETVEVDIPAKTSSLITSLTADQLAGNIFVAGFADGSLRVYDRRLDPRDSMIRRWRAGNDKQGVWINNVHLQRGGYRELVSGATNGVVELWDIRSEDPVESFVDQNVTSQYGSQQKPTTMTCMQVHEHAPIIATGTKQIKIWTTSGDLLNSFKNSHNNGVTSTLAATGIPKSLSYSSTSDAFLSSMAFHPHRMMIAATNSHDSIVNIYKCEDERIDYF
UniProt P38742: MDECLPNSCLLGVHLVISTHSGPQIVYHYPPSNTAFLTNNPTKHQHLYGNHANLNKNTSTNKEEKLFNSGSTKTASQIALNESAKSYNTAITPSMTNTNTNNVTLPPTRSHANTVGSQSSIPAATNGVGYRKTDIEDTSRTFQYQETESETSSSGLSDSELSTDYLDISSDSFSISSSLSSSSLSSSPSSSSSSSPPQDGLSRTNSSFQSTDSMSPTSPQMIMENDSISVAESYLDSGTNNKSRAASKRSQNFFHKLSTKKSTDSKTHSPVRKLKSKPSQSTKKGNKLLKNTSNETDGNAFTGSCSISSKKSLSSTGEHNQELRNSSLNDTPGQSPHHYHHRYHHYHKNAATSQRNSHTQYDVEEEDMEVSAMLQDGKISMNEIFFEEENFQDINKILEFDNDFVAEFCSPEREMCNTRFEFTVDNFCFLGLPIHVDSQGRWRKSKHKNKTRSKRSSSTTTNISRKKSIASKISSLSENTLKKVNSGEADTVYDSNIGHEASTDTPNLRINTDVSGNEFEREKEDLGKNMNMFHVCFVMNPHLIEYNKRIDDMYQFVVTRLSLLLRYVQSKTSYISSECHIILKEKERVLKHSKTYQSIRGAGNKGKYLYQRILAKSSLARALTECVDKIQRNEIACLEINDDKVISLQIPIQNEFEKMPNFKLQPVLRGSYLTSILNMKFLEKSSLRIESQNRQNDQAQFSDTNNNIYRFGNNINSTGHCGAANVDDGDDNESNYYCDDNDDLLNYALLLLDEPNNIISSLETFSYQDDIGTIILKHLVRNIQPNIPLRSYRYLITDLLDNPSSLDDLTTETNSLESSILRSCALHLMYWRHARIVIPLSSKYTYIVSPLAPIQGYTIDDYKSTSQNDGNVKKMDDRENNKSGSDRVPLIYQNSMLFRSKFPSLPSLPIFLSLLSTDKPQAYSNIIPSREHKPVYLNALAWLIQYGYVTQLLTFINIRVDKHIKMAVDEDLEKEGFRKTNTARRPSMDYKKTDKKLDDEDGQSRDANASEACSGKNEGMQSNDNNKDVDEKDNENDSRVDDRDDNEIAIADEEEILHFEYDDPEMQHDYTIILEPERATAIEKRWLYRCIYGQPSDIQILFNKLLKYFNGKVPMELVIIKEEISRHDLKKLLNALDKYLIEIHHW
UniProt P47170: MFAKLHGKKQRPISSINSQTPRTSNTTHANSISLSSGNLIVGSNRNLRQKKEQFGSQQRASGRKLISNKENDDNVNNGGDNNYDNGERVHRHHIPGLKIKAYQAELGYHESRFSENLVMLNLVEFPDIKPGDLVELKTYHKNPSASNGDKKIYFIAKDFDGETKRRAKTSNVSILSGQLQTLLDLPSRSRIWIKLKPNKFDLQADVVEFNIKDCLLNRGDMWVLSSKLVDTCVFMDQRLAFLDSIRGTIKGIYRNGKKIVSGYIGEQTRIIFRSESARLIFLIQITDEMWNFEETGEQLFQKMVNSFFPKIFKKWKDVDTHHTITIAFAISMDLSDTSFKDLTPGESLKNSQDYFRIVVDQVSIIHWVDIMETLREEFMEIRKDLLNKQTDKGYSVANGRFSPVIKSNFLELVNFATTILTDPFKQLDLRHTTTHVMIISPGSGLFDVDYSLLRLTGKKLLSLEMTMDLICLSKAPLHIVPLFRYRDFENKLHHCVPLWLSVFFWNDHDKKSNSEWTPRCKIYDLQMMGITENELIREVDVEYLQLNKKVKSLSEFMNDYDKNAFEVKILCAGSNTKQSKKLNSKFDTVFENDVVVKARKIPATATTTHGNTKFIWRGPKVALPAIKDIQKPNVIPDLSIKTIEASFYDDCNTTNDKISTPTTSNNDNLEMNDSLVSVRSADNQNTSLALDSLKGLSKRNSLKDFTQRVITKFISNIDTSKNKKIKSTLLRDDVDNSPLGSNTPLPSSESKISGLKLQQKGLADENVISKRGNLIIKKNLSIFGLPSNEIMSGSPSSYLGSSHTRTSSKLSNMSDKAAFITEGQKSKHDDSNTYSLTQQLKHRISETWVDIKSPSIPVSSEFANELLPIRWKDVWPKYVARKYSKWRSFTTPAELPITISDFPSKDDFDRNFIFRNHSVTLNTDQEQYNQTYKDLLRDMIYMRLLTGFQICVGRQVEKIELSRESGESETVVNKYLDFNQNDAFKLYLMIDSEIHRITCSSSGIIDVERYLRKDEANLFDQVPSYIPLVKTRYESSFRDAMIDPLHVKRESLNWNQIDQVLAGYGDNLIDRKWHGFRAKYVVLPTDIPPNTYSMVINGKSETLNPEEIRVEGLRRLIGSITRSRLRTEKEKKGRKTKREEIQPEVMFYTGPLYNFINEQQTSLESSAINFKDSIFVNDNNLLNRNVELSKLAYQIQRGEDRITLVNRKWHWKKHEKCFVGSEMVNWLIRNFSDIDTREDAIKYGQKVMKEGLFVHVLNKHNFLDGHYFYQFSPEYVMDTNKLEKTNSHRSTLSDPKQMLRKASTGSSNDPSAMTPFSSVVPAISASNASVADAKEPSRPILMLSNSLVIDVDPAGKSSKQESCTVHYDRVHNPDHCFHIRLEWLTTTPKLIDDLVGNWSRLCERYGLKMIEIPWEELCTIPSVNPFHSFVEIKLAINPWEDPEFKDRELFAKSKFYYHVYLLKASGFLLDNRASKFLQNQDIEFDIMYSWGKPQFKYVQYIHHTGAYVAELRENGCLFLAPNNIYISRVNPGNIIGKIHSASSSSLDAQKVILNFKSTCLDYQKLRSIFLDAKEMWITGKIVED
UniProt Q02948: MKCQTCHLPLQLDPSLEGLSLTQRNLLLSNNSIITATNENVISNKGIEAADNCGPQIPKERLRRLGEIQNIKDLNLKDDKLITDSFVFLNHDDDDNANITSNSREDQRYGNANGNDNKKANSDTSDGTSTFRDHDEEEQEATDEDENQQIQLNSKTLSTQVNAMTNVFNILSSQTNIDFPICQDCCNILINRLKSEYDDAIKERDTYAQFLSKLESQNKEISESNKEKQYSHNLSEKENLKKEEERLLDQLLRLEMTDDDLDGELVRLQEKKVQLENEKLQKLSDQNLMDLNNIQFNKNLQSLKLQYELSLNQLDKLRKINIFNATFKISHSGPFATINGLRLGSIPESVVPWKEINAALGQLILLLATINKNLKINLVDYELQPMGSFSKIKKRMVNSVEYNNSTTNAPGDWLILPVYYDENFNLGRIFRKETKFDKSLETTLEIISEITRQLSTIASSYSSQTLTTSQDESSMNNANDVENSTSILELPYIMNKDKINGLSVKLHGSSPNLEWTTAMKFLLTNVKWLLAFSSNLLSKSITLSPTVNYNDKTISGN
UniProt Q00582: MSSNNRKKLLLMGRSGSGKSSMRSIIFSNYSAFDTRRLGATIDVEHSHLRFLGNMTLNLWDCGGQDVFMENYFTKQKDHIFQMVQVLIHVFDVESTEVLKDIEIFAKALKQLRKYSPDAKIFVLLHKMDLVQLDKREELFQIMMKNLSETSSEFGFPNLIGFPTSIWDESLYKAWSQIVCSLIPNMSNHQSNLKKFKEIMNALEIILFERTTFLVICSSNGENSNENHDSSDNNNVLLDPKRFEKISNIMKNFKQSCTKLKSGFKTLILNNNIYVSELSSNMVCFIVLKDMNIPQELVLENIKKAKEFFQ

These molecules were tested against Kog1-FLAG (S. cerevisiae) (UniProt P38873) (assay: affinity purification with mass spectrometry; Kog1-FLAG captured on anti-FLAG beads from lysate treated with the cleavable crosslinker DSP and 1% digitonin; mock IP from a Kog1-HA strain; 11 experiments in nine conditions (log phase, stress and starvation); crosslinks broken before mass …).

Molecule | binding
Npr3 (from UniProt P38742) | binds
Iml1 (from UniProt P47170 1-1584) | binds
Vps30 (from UniProt Q02948 1-557) | binds
Gtr1 (from UniProt Q00582 1-310) | binds
B1 | binds
B2 | binds
B3 | binds
B4 | binds
B5 | binds
B6 | binds
B7 | binds

Reference: article PMC9499541, “Ait1 regulates TORC1 signaling and localization in budding yeast” (eLife, 2022)
